The campaign covered roughly 320,000 compounds. About 22,000 (6.9%) were called active. Inconclusive means that the source gave no clear call. Such entries were picked first, then a sample of the others. Calls come from the whole dose curve; as a rule, active = well fitted inhibition curve with a large enough effect; inconclusive = small, poorly fitted or top-dose-only effect, or another doubt; inactive = no such curve, though single readings can be large or run the other way. Where the call is inconclusive, the potency comes from a doubtful curve fit.
Test: Primary qHTS for delayed death inhibitors of the malarial parasite plastid, 96 hour incubation
Details: P. falciparum luciferase reporter growth; series mostly up to 28.7 µM
Procedure, shortened: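 P. falciparum expressing integrated firefly luciferase, in erythrocytes at 2% hematocrit, 0.05% parasitemia, incubated with compounds 96 h at 37 C, 5% CO2. Growth inhibition read as loss of luminescence; two-generation exposure targets delayed-death apicoplast inhibitors.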
Potency is the fitted concentration of half-maximal effect.

SMILES	Potency
CCNC(=S)NNC(=O)c1cc(-c2ccc(OC)cc2)nc2ccccc12	inactive
O=C(CSc1nnc(-c2ccccc2)c(-c2ccccc2)n1)Nc1ccc(Br)cn1	inconclusive: 10.4 µM [inhibitor, partial curve, poor fit]
CC1(C)CC(=O)C2=C(C1)Nc1ccccc1NC2c1ccc(F)cc1 (stereo not given)	inactive
COc1ccc(-n2c(C)cc(/C=C3\C(=N)N4N=C(CC(=O)N5CCOCC5)SC4=NC3=O)c2C)c(OC)c1	inconclusive: 0.828 µM [inhibitor, full curve, poor fit]
COc1ccc(C2Nc3ccccc3C(=O)N2NS(C)(=O)=O)cc1OC (stereo not given)	inconclusive: 13.1 µM [inhibitor, partial curve, poor fit]
COc1ccc(NC(=O)CN2CCC(C)CC2)c([N+](=O)[O-])c1	inactive
COc1ccc(OC)c(S(=O)(=O)n2cccn2)c1	inconclusive: 0.0828 µM [inhibitor, full curve, poor fit]
CCN(CC)S(=O)(=O)c1cc(NC(=O)c2cc(-c3ccccn3)nc3ccccc23)ccc1C	inconclusive: 10.4 µM [inhibitor, single point]
Cc1cc(C)cc(OCCCC(=O)O)c1	inactive
CC(=O)Nc1ccccc1C(=O)C(=O)Nc1ccc(C(=O)NCC2CCCO2)cc1 (stereo not given)	inactive
CCOC(=O)C1CCN(CC(O)COc2ccc(S(=O)(=O)N3CCCC3)cc2[N+](=O)[O-])CC1 (stereo not given)	inconclusive: 1.17 µM [inhibitor, partial curve, poor fit]
CCC(NC(=S)NCc1ccc(F)cc1)c1ccc(C)cc1 (stereo not given)	active: 10.4 µM
Cc1ccc(NC(=O)COc2cccc3ccccc23)c(O)c1	active: 4.65 µM
CC(C)c1ccc(NC(=O)N2CCC(c3nc4ccccc4o3)CC2)cc1	inactive
COc1cc(OC)c(OC)cc1CCC(C)NC(=O)Cc1ccccc1 (stereo not given)	inactive
Cc1cc(CNC(=O)CC2C(=O)NCCN2Cc2ccc(-c3ccccc3)cc2)nn1C (stereo not given)	active: 9.28 µM
CCN(CC)S(=O)(=O)c1ccc(C(=O)OCCNC(=O)c2cccnc2)cc1	inconclusive: 18.5 µM [inhibitor, single point]
COc1cc(/C=N/NC(=O)CNc2n[nH]c(=O)[nH]c2=O)ccc1OCc1ccccc1	inactive
O=C1/C(=C\c2cc(Cl)c(O)c(Cl)c2)SC(=S)N1Cc1ccccc1	inconclusive: 9.28 µM [inhibitor, partial curve, poor fit]
C=CCN1c2ccccc2[C@]23C[C@@H](C(=O)OC)N(C(=O)C4CCC4)C2=NC(C(=O)OC)=C(C(=O)OC)[C@H]13	inactive

Some of the entries so far, with bars between the fields.
SMILES | Potency
CCN(CC)S(=O)(=O)c1cc(NC(=O)c2cc(-c3ccccn3)nc3ccccc23)ccc1C | inconclusive: 10.4 µM [inhibitor, single point]
O=C1/C(=C\c2cc(Cl)c(O)c(Cl)c2)SC(=S)N1Cc1ccccc1 | inconclusive: 9.28 µM [inhibitor, partial curve, poor fit]
